# Article PMC7819943, “Rice protein-binding microarrays: a tool to detect cis-acting elements near promoter regions in rice”
# The list shows a part of the results.
# Biological target: T1, OsSMF1 (Oryza sativa, UniProt Q6ZLB0 1-436)
# T1 sequence: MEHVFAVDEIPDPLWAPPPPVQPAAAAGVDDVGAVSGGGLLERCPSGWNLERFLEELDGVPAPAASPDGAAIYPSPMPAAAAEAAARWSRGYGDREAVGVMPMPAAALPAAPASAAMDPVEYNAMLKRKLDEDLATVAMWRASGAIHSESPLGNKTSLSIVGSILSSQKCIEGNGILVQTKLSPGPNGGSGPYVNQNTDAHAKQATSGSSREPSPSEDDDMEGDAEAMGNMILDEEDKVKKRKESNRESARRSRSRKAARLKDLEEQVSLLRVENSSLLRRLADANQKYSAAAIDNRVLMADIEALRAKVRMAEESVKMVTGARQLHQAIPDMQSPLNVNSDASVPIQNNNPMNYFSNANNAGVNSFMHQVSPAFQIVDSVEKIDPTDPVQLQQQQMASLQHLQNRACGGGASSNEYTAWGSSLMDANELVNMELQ
# Assay: protein-binding microarray (RPBM); PBS, 2% BSA, 51.3 ng/ul salmon testes DNA, 50 uM zinc acetate, 200 nM TF, 25 C, 1 h; high values mean tight binding
# Settings: protein: recombinant; tags: N-terminal polyhistidine and DsRed monomer fusion (pET32a); chain copies: 2; label: CyDye5-dUTP incorporated in the synthesized complementary strand; 3' TTTTT single-stranded linker to array surface; dsDNA, one strand shown
# How it was run: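 Using Ni–NTA, transcription factors fused N-terminally to polyhistidine and DsRed were purified after expression in E. coli BL21-CodonPlus. These were incubated at 200 nM with a blocked, double-stranded custom Agilent array for 1 h at 25 °C in a buffer containing 50 µM zinc acetate, and the array was washed. The binding signal is per-feature fluorescence intensity (arbitrary units) on an Axon 4000B scanner.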
row,Sequence,binding signal
1,CTTCAGTTTTGCATCTCCACCCTTCCTCTCTTGCAGCAGCCGGAGTCACCTAGTGCAG,18300 fluorescence intensity (a.u.)
2,GCAGGGAATGTTCCATTTGCCACGTTATGTGCTCTTAGCTCGGAGTCACCTAGTGCAG,11100 fluorescence intensity (a.u.)
3,ATTAAGGTCTGAAAGTTTGCATAGTCAACCTCTTCCATCTCGGAGTCACCTAGTGCAG,4140 fluorescence intensity (a.u.)
4,ACCTCTCCAATCCCAAGGCCAACAATTTATGCAACAGCACCGGAGTCACCTAGTGCAG,3280 fluorescence intensity (a.u.)
5,TTCTTGCTGGGATTTGATGCAGGCATTGAGACATTGATGACGGAGTCACCTAGTGCAG,3440 fluorescence intensity (a.u.)
6,CATTAATCTTCTCCTCACGCTTAGTCACCATTTCTATACTCGGAGTCACCTAGTGCAG,9380 fluorescence intensity (a.u.)
7,CCCTCGCGCCGTCGCCGTCGCCAAGAGCCGCCACTTCCGCCGGAGTCACCTAGTGCAG,3200 fluorescence intensity (a.u.)
8,CCTCAGCGCCACATCAACTGGCGCTAAATGTCGTGTCACCCGGAGTCACCTAGTGCAG,8070 fluorescence intensity (a.u.)
9,GGTACAATGTTATGTGATCTTGCTCAGGTGGCAGATGGTCCGGAGTCACCTAGTGCAG,3380 fluorescence intensity (a.u.)
10,CATAACAACCACTAAAACATTATGAATATTTTGTACATACCGGAGTCACCTAGTGCAG,22800 fluorescence intensity (a.u.)
11,TGTGTTGGTGTTATGAGGTGTTGGATTAGATGAGAGGAATCGGAGTCACCTAGTGCAG,4280 fluorescence intensity (a.u.)
12,CCGACGCCACCGCCCACGTGTCCTCTCCTCCCACCCGCCACGGAGTCACCTAGTGCAG,9460 fluorescence intensity (a.u.)
13,AGATCATTAGTTAGCACATATCATCCACATCATCCTATTTCGGAGTCACCTAGTGCAG,5980 fluorescence intensity (a.u.)
14,CAAAAGAGAGACTTGCCTGAGTTTCTGTAGCCGGTACTATCGGAGTCACCTAGTGCAG,4350 fluorescence intensity (a.u.)
15,CTTCTTTGGTCCCTAGGTTGCTGGCATTTTGGTGCCTACTCGGAGTCACCTAGTGCAG,3870 fluorescence intensity (a.u.)
16,CCCGTGCCTAGACCACGTCCATGCGTGTATTAATTAGTGTCGGAGTCACCTAGTGCAG,3420 fluorescence intensity (a.u.)
17,ACTCCCATGTCAATGTGACTCATCTTCCCAATTAAAATAGCGGAGTCACCTAGTGCAG,8080 fluorescence intensity (a.u.)
18,AATTCTTCCTGCCTCATAACGCACGAACGCACGTCACGAACGGAGTCACCTAGTGCAG,3420 fluorescence intensity (a.u.)
19,AGTCCTGGACGCGTCGACGCGTGGTGACGACGTGTCGACGCGGAGTCACCTAGTGCAG,9290 fluorescence intensity (a.u.)
20,GCAGATCTGACAGCTGACTACAGTCATGTGAACTATTCGTCGGAGTCACCTAGTGCAG,4930 fluorescence intensity (a.u.)
21,TGATTGTGACACTAGCACGACGCACTTTCCTCTATATACACGGAGTCACCTAGTGCAG,3630 fluorescence intensity (a.u.)
22,AATACTCCAAATTAGCGTCCAAACATCCGATATGACATGGCGGAGTCACCTAGTGCAG,4090 fluorescence intensity (a.u.)
23,GGAGAGTTCATTTGCGGGTGCACGTGCAGTGCAGTCTTTTCGGAGTCACCTAGTGCAG,22800 fluorescence intensity (a.u.)
24,TTTCTCGGAATTTCTGGAAATTTTCTTGGAATTAGTAGAACGGAGTCACCTAGTGCAG,65500 fluorescence intensity (a.u.)
25,CCTCCTCCTCCTCTACGTCGGCCCACGACTTCTTCTCCGGCGGAGTCACCTAGTGCAG,3920 fluorescence intensity (a.u.)
26,CAAAATGCTGCCGACTCGGCCAACGCCACGCCCACACACCCGGAGTCACCTAGTGCAG,3680 fluorescence intensity (a.u.)
27,TAACATCATGTCTAGTTTGTTACCCTATCAAGACTAAAACCGGAGTCACCTAGTGCAG,42600 fluorescence intensity (a.u.)

row,Sequence,binding signal
1,GCCAATGCCATGTCCTCTGCGGCCTGCTTGCTGGTGAACTCGGAGTCACCTAGTGCAG,46600 fluorescence intensity (a.u.)
2,ACGGCAAGTTGCACACATGACGTGTCATTTTCCAAATTGCCGGAGTCACCTAGTGCAG,29800 fluorescence intensity (a.u.)
3,AATATAAATTCATATTAGTCAGTTATACTAGGGTTTGGTGCGGAGTCACCTAGTGCAG,3240 fluorescence intensity (a.u.)
4,CGCCGCTGCCGCCAAACCGTCGGTGGAGAAGGCCTACCGGCGGAGTCACCTAGTGCAG,59200 fluorescence intensity (a.u.)
5,GGATGCCATGACACCTAGGCATAGAATAGGCATAGAAAATCGGAGTCACCTAGTGCAG,3750 fluorescence intensity (a.u.)
6,CATCATCTCCTCCTATATCAGTTGTCATCACCCGGCCTGTCGGAGTCACCTAGTGCAG,4710 fluorescence intensity (a.u.)
7,ATCCTACTTTCCTATTGCTGTCATATGTGTCACGGCTGAACGGAGTCACCTAGTGCAG,4920 fluorescence intensity (a.u.)
8,GATAAGGGAATTAATATATACAACGTGTCGAAATTTTGAGCGGAGTCACCTAGTGCAG,3140 fluorescence intensity (a.u.)
9,CCAATATGAGCCCATTAGGCCCATCTGGCCCACAGCTCATCGGAGTCACCTAGTGCAG,3500 fluorescence intensity (a.u.)
10,TCGTACGCTGGTCGGACATACCAGTCGTACGTATAGTATTCGGAGTCACCTAGTGCAG,7790 fluorescence intensity (a.u.)
11,TCATGGCGACACTGCTTCGAACGTGGCGACGGTCAGTTCTCGGAGTCACCTAGTGCAG,5080 fluorescence intensity (a.u.)
12,TCACATGCATAATTAGAATAATTGAAAGGCCACAGATGGCCGGAGTCACCTAGTGCAG,3370 fluorescence intensity (a.u.)
13,TCGGCGGCGGCACACGCGTCGCCGCGCGGTTCGTCCGCTCCGGAGTCACCTAGTGCAG,5120 fluorescence intensity (a.u.)
14,AGCCGTCCGTCCCGTGCTCTCACGTCATCAGGCATCCACCCGGAGTCACCTAGTGCAG,10600 fluorescence intensity (a.u.)
15,GATACAATCGTATTGTCTGACGTCGCCATTGTGTAGATTACGGAGTCACCTAGTGCAG,4840 fluorescence intensity (a.u.)
16,TACAAAGCCTCACTACCTAGCTTCTTCTCTCTAGTCAAGACGGAGTCACCTAGTGCAG,5540 fluorescence intensity (a.u.)
17,CTGCGGCAATCACTGACTCAGGTTGGTCCAGTTCATGGTTCGGAGTCACCTAGTGCAG,5000 fluorescence intensity (a.u.)
18,TACAAAACAGAAGGTGACACTGGTGGTTCCTTGGCTCTGTCGGAGTCACCTAGTGCAG,3560 fluorescence intensity (a.u.)
19,CATCCCATCCATCCATCTTTGCTGATTCACCCCACAAAATCGGAGTCACCTAGTGCAG,6310 fluorescence intensity (a.u.)
20,CTAGTAGTGACACATCACCCAATTTGTGTGCATACCGCATCGGAGTCACCTAGTGCAG,14100 fluorescence intensity (a.u.)
21,GCCAAACCCCTCCACGCGTCACATAAACCAACACATCTCCCGGAGTCACCTAGTGCAG,8630 fluorescence intensity (a.u.)
22,TTCAGTCTTGTAGCAACGTCAACCGGTGCTGTCTTACAAGCGGAGTCACCTAGTGCAG,4840 fluorescence intensity (a.u.)
23,ACATGCAAAGATGCCACATCATCATCCACTATCACTAATTCGGAGTCACCTAGTGCAG,17600 fluorescence intensity (a.u.)
24,TTTCTACAAGTGGGTTGGACCACATGCATTGACTAATAATCGGAGTCACCTAGTGCAG,3140 fluorescence intensity (a.u.)
25,AGGTTGAAGCTCATGTTAGAATTGTATTAAAATTCTTATGCGGAGTCACCTAGTGCAG,5810 fluorescence intensity (a.u.)
26,GTGGAGACTAAATCCAACACATCTCGCTTGTCAGCGTCTTCGGAGTCACCTAGTGCAG,3140 fluorescence intensity (a.u.)
27,CGGGCGGCATCGACACGTGTAGTTTTGCGAATGGTCAGCGCGGAGTCACCTAGTGCAG,11900 fluorescence intensity (a.u.)

# Random excerpt: four entries already listed, in no set order.
row,Sequence,binding signal
26,GTGGAGACTAAATCCAACACATCTCGCTTGTCAGCGTCTTCGGAGTCACCTAGTGCAG,3140 fluorescence intensity (a.u.)
2,GCAGGGAATGTTCCATTTGCCACGTTATGTGCTCTTAGCTCGGAGTCACCTAGTGCAG,11100 fluorescence intensity (a.u.)
19,AGTCCTGGACGCGTCGACGCGTGGTGACGACGTGTCGACGCGGAGTCACCTAGTGCAG,9290 fluorescence intensity (a.u.)
23,GGAGAGTTCATTTGCGGGTGCACGTGCAGTGCAGTCTTTTCGGAGTCACCTAGTGCAG,22800 fluorescence intensity (a.u.)
